Literature values in patent US20090035370A1, “DOSAGE FORM AND METHOD OF USE” (DRUGTECH CORPORATION, priority 2007, published 2009).

How the values were obtained:
adrenergic a 1 receptor = adrenergic a 1 receptor in the brain
adrenergic a 2 receptor = adrenergic a 2 receptor in the brain

Which IC50 (adrenergic a 1 receptor) does the source give for `OCCOCCN1CCN(C2=Nc3ccccc3Sc3ccccc32)CC1` [Quetiapine] here?
The IC50 was 94 nM.

And the IC50 (adrenergic a 2 receptor)?
Its IC50 is 271 nM.
